According to PubChem BioAssay AID268 (DTP/NCI, 2004):
The list shows only some results of the screen, not a fair sample: it gathers tests that were run many times, whatever their T/C, doses with no T/C, and many T/C values between a quarter and a half above the control. Other doses and runs of a compound stand elsewhere. T/C is the treated group as % of the vehicle group. Schedule codes are those of the source, read here as Q, the interval in days (D) or hours (H), X, the number of doses. Some schedules carry Z or #; the key to these is not given. Some T/C values carry the count of animals alive at the toxicity check (mostly the fifth day); where none is given, no animal had died by that day. Some doses have a count of surviving animals in place of a T/C: the source files T/C as zero there, which appears to mark a toxic dose or a test without result, not a measured value. Survivors were counted at the toxicity check, usually on the fifth day, unless a day is given; later deaths do not show. Some entries were tested several times; the values are given in rising order.

Test system: CD2F1 mice, P1798 lymphosarcoma sc, tumor weight T/C
Test: NCI In Vivo Anticancer Drug Screen. Data for tumor model P1798 Lymphosarcoma (subcutaneous) in CD2F1 (CDF1) mice
Conditions: T/C endpoint: mean tumor weight, higher T/C = larger tumour
Description: The antitumor activity of compounds was measured in mice bearing transplantable tumors. Survival or tumor size were measured and the results are expressed as the measurement made in the treated group (T) divided by the measurement made in the vehicle treated control group (C). The tumor model used in this assay is P1798 Lymphosarcoma (subcutaneous) in CD2F1 (CDF1) mice

[1] = dose: 1.0 mg/kg/injection, schedule: Q01DX010 (ip), vehicle: saline
[2] = dose: 50.0 mg/kg/injection, schedule: Q01DX010 (ip), vehicle: saline
[3] = dose: 100.0 mg/kg/injection, schedule: Q01DX010 (ip), vehicle: saline
[4] = dose: 200.0 mg/kg/injection, schedule: Q01DX010 (ip), vehicle: saline
[5] = dose: 20.0 mg/kg/injection, schedule: Q01DX010 (ip), vehicle: saline
[6] = dose: 100.0 mg/kg/injection, schedule: Q01DX010 (sc), vehicle: steroid suspending solution
[7] = dose: 40.0 mg/kg/injection, schedule: Q01DX010 (ip), vehicle: saline
[8] = dose: 1000.0 mg/kg/injection, schedule: Q01DX010 (ip), vehicle: saline

In the case of `COc1cc([C@@H]2c3cc4c(cc3[C@H](O)[C@H]3COC(=O)[C@H]23)OCO4)cc(OC)c1OC`, the survivor count (dose: 4.0 mg/kg/injection, schedule: Q01DX011 (ip), vehicle: carboxymethylcellulose (CMC)) is reported as 0 of 6.
For `CSCS(=O)C[C@H](CO)NC(=O)/C=C/c1c(C)[nH]c(=O)[nH]c1=O` (some centres undefined), the survivor count [1] was 0 of 6.
For `CCCNc1ncnc2c1cnn2C`, the survivor count [2] was 1 of 6, the survivor count [3] was 0 of 6 and the survivor count [4] was 0 of 6.
With `COc1ccc2cc3[n+](cc2c1OC)CCc1cc2c(cc1-3)OCO2` the survivor count (dose: 25.0 mg/kg/injection, schedule: Q01DX011 (ip), vehicle: saline) was 0 of 6, the survivor count (dose: 50.0 mg/kg/injection, schedule: Q01DX011 (ip), vehicle: saline) was 0 of 6 and the survivor count (dose: 75.0 mg/kg/injection, schedule: Q01DX011 (ip), vehicle: saline) was 0 of 6.
With `O=c1ccc2ccccc2o1` the survivor count (dose: 250.0 mg/kg/injection, schedule: Q01DX011 (ip), vehicle: carboxymethylcellulose (CMC)) was 0 of 7 and the survivor count (dose: 375.0 mg/kg/injection, schedule: Q01DX011 (ip), vehicle: carboxymethylcellulose (CMC)) was 0 of 7.
`CC1(C)O[C@@H]2C[C@H]3[C@@H]4CCC5=CC(=O)C=C[C@]5(C)[C@@]4(F)[C@@H](O)C[C@]3(C)[C@]2(C(=O)CO)O1` was tested, and the survivor count (dose: 3.75 mg/kg/injection, schedule: Q01DX010 (sc), vehicle: steroid suspending solution) was 1 of 6, the survivor count (dose: 7.5 mg/kg/injection, schedule: Q01DX010 (sc), vehicle: steroid suspending solution) was 0 of 6 and the survivor count (dose: 15.0 mg/kg/injection, schedule: Q01DX010 (sc), vehicle: steroid suspending solution) was 0 of 6. The survivor count (dose: 30.0 mg/kg/injection, schedule: Q01DX010 (sc), vehicle: steroid suspending solution) was 0 of 6.
For `NC(Cc1ccc(N(CCCl)CCCl)cc1)C(=O)O` (centres undefined), the survivor count (dose: 10.0 mg/kg/injection, schedule: Q01DX010 (ip), vehicle: saline) was 2 of 6 and the survivor count [5] was 0 of 6.
In the case of `CC(=O)OCC(=O)[C@@]1(O)CC[C@H]2[C@@H]3CCC4=CC(=O)C=C[C@]4(C)[C@H]3[C@@H](O)C[C@@]21C`, the T/C (dose: 20.0 mg/kg/injection, schedule: Q01DX Z (sc), vehicle: steroid suspending solution, run until all animals had died) is reported as 132 % of control.
For `CN(C)c1ccc(/C=C/c2ccnc3ccccc23)cc1`, the survivor count (dose: 80.0 mg/kg/injection, schedule: Q01DX010 (ip), vehicle: saline) was 2 of 6.
`Nc1nc(N)c2nc(CNc3ccc(C(=O)NC(CCC(=O)O)C(=O)O)cc3)cnc2n1` (centres undefined) was tested, and the survivor count (dose: 400.0 micrograms/kg/injection, schedule: Q01DX010 (ip), vehicle: other) was 2 of 6.
For `CC(=O)OCC(=O)[C@@]1(O)CC[C@H]2[C@@H]3C[C@H](C)C4=CC(=O)C=C[C@]4(C)[C@H]3[C@@H](O)C[C@@]21C`, the survivor count [6] was 3 of 6.
With `Nc1nc(F)nc2c1ncn2C1OC(CO)C(O)C1O` (centres undefined) the survivor count (dose: 6.0 mg/kg/injection, schedule: Q01DX010 (ip), vehicle: saline) was 0 of 7, the survivor count (dose: 12.0 mg/kg/injection, schedule: Q01DX010 (ip), vehicle: saline) was 0 of 7 and the survivor count (dose: 24.0 mg/kg/injection, schedule: Q01DX010 (ip), vehicle: saline) was 0 of 7.
For `N#CCCCCCNC(=O)CCCCC(=O)NCCCCCC#N`, the T/C (dose: 50.0 mg/kg/injection, schedule: Q01DX010 (ip), vehicle: saline, evaluated on day 12) was 126 % of control.
For `CC(=O)OC(C)(C)/C=C/C(=O)[C@](C)(O)[C@H]1[C@H](O)C[C@@]2(C)[C@@H]3CC=C4[C@@H](C[C@H](O)C(=O)C4(C)C)[C@]3(CO)C(=O)C[C@]12C`, the T/C (dose: 0.57 mg/kg/injection, schedule: Q01DX010 (ip), vehicle: saline, evaluated on day 12) was 141 % of control [5 of 6 alive].
`CCCNc1ncnc2[nH]ncc12` was tested, and the T/C (dose: 3.13 mg/kg/injection, schedule: Q01DX010 (ip), vehicle: saline, evaluated on day 12) was 131 % of control, the T/C (dose: 12.5 mg/kg/injection, schedule: Q01DX010 (ip), vehicle: saline, evaluated on day 12) was 129 % of control and the survivor count (dose: 25.0 mg/kg/injection, schedule: Q01DX010 (ip), vehicle: saline) was 3 of 6. For the same compound, the survivor count [2] was 0 of 6.
`CN(C)c1nc(N(C)C)nc(N(C)C)n1` was tested, and the survivor count (dose: 150.0 mg/kg/injection, schedule: Q01DX010 (ip), vehicle: saline) was 3 of 6.
With `Cc1cc(N(CCCl)CCCl)ccc1N=Nc1ccccc1C(=O)O` the survivor count [7] was 0 of 6.
For `C[C@]12CC[C@H](O)C[C@@H]1CC[C@@H]1[C@@H]2C(=O)C[C@]2(C)C3=CC(=O)O[C@H]3C[C@@H]12`, the T/C (dose: 20.0 mg/kg/injection, schedule: Q01DX010 (sc), vehicle: steroid suspending solution, evaluated on day 12) was 136 % of control.
With `CCOC(N)=O` the survivor count [8] was 0 of 6.
With `O=C(Nc1ccc(NC2=NCCN2)cc1)c1ccc(C(=O)Nc2ccc(NC3=NCCN3)cc2)cc1` the survivor count (dose: 16.0 mg/kg/injection, schedule: Q01DX010 (ip), vehicle: saline) was 1 of 6.
`C[C@]12CCC(=O)C=C1CC[C@@H]1[C@@H]2[C@@H](O)C[C@@]2(C)[C@H]1CC[C@]2(O)C(=O)CO` was tested, and the survivor count [6] was 2 of 6 and 3 of 6.
`CCOC(=O)NP(=O)(N1CC1)N1CC1` was tested, and the survivor count [5] was 1 of 6 and the survivor count [7] was 0 of 6.
`CC[n+]1c(-c2ccccc2)c2cc(N)ccc2c2ccc(N)cc21` was tested, and the survivor count [5] was 1 of 6 and the survivor count [7] was 0 of 6.
`COCCOC` was tested, and the survivor count [8] was 2 of 6.
`CCc1c(CC(=O)O)c2cc(C)ccc2n1Cc1ccc(Cl)cc1` was tested, and the survivor count [3] was 0 of 6.
In the case of `O=C(C(=O)N1CC1)c1c[nH]c2ccccc12`, the survivor count [2] is reported as 2 of 6 and the survivor count [3] is reported as 0 of 6.
`CC(=O)NCCSC(=O)C(=O)SCCNC(C)=O` was tested, and the survivor count [4] was 0 of 6.
`Nc1ncnc2c1ccn2C1OC(CO)C(O)C1O` (centres undefined) was tested, and the T/C (dose: 0.16 mg/kg/injection, schedule: Q01DX010 (ip), vehicle: saline, evaluated on day 12) was 134 % of control.
With `NCCCCCCNCCCCCCN` the survivor count [3] was 0 of 6 and the survivor count [4] was 0 of 6.
With `COc1ccc2[nH]c3c(C)c4ccncc4c(C)c3c2c1` the survivor count [2] was 0 of 6 and the survivor count [3] was 0 of 6.
In the case of `C1CN1c1nc(N2CC2)nc(N2CC2)n1`, the survivor count [1] is reported as 0 of 6.
`CN(C)[C@@H]1C(=O)C(C(N)=O)=C(O)[C@@]2(O)C(=O)C3=C(O)c4c(O)cccc4C[C@H]3C[C@@H]12` was tested, and the survivor count (dose: 60.0 mg/kg/injection, schedule: Q01DX010 (ip), vehicle: saline) was 0 of 6 and the survivor count (dose: 120.0 mg/kg/injection, schedule: Q01DX010 (ip), vehicle: saline) was 0 of 6.
`CC(=O)Nc1c(Cl)cc2c(c1Cl)Cc1cc([N+](=O)[O-])ccc1-2` was tested, and the survivor count (dose: 35.0 mg/kg/injection, schedule: Q01DX011 (ip), vehicle: carboxymethylcellulose (CMC)) was 3 of 6 and the survivor count (dose: 125.0 mg/kg/injection, schedule: Q01DX011 (ip), vehicle: carboxymethylcellulose (CMC)) was 3 of 6.
